Reference: paper PMC5397179
These are yes or no findings as the source states them, for the method shown. In cells and extracts the contact can be indirect. These calls come from enrichment with a bait or labelling near it, and not all partners need be listed.

What was measured:
Experiment in all cases: affinity purification with mass spectrometry; biotinylated purified bait on streptavidin-coated magnetic beads; prey: DNA/RNA-depleted extract of B. subtilis 168; relative ion scores against a 'no bait' pulldown; only the target purified
[1] = molecular target: T1, Biotinylated full length PcrA (Geobacillus stearothermophilus), wild type (Geobacillus stearothermophilus) (UniProt P56255)
T1 sequence (chain, biotin): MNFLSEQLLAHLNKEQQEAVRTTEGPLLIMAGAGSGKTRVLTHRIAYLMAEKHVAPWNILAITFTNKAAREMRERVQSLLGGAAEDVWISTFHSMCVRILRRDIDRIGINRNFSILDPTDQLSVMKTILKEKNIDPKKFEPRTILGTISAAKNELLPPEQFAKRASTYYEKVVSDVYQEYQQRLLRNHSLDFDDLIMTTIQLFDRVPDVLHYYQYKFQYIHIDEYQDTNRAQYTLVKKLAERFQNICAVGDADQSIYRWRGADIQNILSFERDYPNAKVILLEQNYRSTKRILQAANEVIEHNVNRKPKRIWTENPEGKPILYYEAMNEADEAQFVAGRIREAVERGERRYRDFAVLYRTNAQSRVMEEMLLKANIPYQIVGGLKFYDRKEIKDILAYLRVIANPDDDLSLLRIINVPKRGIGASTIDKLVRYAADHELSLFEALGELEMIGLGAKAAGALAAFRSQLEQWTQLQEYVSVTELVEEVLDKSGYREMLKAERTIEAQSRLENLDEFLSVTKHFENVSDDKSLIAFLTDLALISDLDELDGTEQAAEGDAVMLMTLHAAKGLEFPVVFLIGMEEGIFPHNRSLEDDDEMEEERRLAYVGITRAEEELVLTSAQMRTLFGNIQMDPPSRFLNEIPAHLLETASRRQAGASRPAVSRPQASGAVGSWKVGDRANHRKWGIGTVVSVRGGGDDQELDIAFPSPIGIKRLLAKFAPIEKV

[2] = molecular target: T2, Biotinylated full length PcrA K712A (Geobacillus stearothermophilus) (UniProt P56255)
T2 sequence (chain, biotin): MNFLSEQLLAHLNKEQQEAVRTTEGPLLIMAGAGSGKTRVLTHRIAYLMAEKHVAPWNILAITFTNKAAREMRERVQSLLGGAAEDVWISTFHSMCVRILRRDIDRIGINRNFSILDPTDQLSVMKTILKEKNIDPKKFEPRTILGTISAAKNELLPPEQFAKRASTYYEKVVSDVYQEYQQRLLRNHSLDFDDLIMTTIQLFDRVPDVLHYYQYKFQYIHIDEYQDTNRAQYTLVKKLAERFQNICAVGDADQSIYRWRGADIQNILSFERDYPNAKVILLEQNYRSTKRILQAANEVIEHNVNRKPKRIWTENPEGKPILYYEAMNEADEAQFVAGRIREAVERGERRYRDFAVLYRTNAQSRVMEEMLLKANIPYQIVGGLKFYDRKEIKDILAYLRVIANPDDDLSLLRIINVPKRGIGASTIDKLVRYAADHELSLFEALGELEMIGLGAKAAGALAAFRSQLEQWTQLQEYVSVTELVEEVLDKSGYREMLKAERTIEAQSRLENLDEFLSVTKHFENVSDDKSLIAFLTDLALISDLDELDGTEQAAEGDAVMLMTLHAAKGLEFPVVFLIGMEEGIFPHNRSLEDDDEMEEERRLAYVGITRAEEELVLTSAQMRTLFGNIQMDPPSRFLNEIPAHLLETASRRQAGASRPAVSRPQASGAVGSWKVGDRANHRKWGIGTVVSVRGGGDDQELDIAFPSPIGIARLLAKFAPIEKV

[3] = molecular target: T3, Biotinylated full length PcrA L714A (Geobacillus stearothermophilus) (UniProt P56255)
T3 sequence (chain, biotin): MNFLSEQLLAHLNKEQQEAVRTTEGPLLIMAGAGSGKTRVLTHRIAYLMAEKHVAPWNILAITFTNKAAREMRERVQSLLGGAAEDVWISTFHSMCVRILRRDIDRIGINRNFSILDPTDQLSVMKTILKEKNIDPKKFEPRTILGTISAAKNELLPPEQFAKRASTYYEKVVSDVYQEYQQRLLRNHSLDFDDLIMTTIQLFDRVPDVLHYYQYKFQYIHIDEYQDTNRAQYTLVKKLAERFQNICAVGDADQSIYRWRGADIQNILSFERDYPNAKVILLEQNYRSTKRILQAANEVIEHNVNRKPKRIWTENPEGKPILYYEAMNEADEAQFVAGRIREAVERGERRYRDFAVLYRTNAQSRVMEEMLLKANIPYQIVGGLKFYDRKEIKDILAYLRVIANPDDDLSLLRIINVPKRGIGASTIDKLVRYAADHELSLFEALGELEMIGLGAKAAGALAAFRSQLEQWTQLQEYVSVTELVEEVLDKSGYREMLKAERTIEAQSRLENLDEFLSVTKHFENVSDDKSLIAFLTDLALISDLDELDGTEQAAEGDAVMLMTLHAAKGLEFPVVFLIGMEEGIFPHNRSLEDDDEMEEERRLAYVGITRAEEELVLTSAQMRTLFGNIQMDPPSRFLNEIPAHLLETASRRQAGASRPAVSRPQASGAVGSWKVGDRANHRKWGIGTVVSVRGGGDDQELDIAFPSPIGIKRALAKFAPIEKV

Measured: binding

B1: YvgS/HelD (SF1 helicase), Bacillus subtilis (enzyme, UniProt O32215 1-774)
chain: MNQQDKEWKEEQSRIDEVLKELEKKERFLETSAGGLKHDIIGLRKSFWEDVKVNFDDAHEAIETMASIKQQAELLSDREHNHRRMDQQLKRIHQLKKSPYFGRIDFIENGEEQAERIYIGLASCLDEKEEHFLIYDWRAPISSLYYNYSPGKAEYEVPGETIEGEMVLKRQFMIKNGTLKAMFNTDMTIGDEMLQEVLSHHSDTQMKNIVSTIQKEQNQIIRNEKSKILIVQGAAGSGKTSAALQRVAYLLYRHRGVIDAGQIVLFSPNFLFNSYVSSVLPELGEENMEQATFQEYIEHRLGRKFKCESPFDQLEYCLTETKGGDFPTRLAGITWKAGLSFQQFINEYVTRLSSEGMIFKNIIFRGQKLITKEQIQSYFYSLDQNHSIPNRMEQTAKWLLSELNKLEKKERRKDWVVHEAELLDKEDYLDVYKKLQERKRFSESTFNDYQREQQLLAAIIVKKAFKPLKQAVRLLAFLDVTQLYLQLFSGWGGKFQHEKMDAIGELTRSAFTDNKLLYEDAAPFLYMQDLIEGRKKNTKIKHLFIDEAQDYSPFQMAYMRSIFPAASMTVLGDINQSIYAHTINGDQRMDACFEDEPAEYVRLKRTYRSTRQIVEFTKAMLQDGADIEPFNRSGEMPLVVKTEGHESLCQKLAQEIGRLKKKGHETIAVICKTAHQCIQAHAHMSEYTDVRLIHKENQPFQKGVCVIPVYLAKGIEFDAVLVYDASEEHYHTEHDRRLLYTACTRAMHMLAVFYTGEASPFVTAVPPHLYQIAE
binds: [1] | [2] | [3]

B2: UvrB, Bacillus subtilis (protein, UniProt P37954 1-661)
chain: MKDRFELVSKYQPQGDQPKAIEKLVKGIQEGKKHQTLLGATGTGKTFTVSNLIKEVNKPTLVIAHNKTLAGQLYSEFKEFFPNNAVEYFVSYYDYYQPEAYVPQTDTFIEKDASINDEIDKLRHSATSALFERRDVIIIASVSCIYGLGSPEEYREMVVSLRTEMEIERNELLRKLVDIQYARNDIDFQRGTFRVRGDVVEIFPASRDEHCVRVEFFGDEIERIREVDALTGEILGDRDHVAIFPASHFVTRAEKMEKAIQNIEKELEEQLKVMHENGKLLEAQRLEQRTRYDLEMMREMGFCSGIENYSRHLTLRPPGSTPYTLLDYFPDDFMIVVDESHVTIPQVRGMFNGDQARKQVLVDHGFRLPSALDNRPLRFEEFEKHMHNIVYVSATPGPYEIEHTDEMVEQIIRPTGLLDPLIDVRPIEGQIDDLIGEIQARIERNERVLVTTLTKKMSEDLTDYLKEIGIKVNYLHSEIKTLERIEIIRDLRLGKYDVLVGINLLREGLDIPEVSLVAILDADKEGFLRSERSLIQTIGRAARNAEGRVIMYADKITKSMEIAINETKRRREQQERFNEEHGITPKTINKEIRDVIRATVAAEDKAEYKTKAAPKLSKMTKKERQKVVEQMEHEMKEAAKALDFERAAELRDLLLELKAEG
binds: [1] | [2] | [3]
